Results reported in PubChem BioAssay AID192 (DTP/NCI, 2004).
The list does not hold the whole screen: its compounds were picked by chemical class. Not every dose and run of a compound is shown. T/C is the treated group as % of the vehicle group. Where survival is the endpoint, the PubChem record calls one and a half times the control and up active, and a quarter to a half above the control has no call in these data; cut-offs in other NCI protocols can differ. Schedules are NCI's codes, taken here to give the interval after Q, in days (D) or hours (H), and the number of doses after X. Some T/C values are marked as having no survivor count here; that says nothing about deaths at the dose. Some entries hold several experiments; their values stand side by side, smallest first.

System: BDF1 mice, B16 melanoma ip, median survival T/C
Test: NCI In Vivo Anticancer Drug Screen. Data for tumor model B16 Melanoma (intraperitoneal) in B6D2F1 (BDF1) mice
Conditions: T/C endpoint: median survival time, higher T/C = longer survival
Method: The antitumor activity of compounds was measured in mice bearing transplantable tumors. Survival or tumor size were measured and the results are expressed as the measurement made in the treated group (T) divided by the measurement made in the vehicle treated control group (C). The tumor model used in this assay is B16 Melanoma (intraperitoneal) in B6D2F1 (BDF1) mice

[1] = dose: 2.0 mg/kg/injection, schedule: Q01DX009 (ip), vehicle: distilled water + Tween-80
[2] = dose: 0.5 mg/kg/injection, schedule: Q01DX009 (ip), vehicle: saline + alcohol
[3] = dose: 1.0 mg/kg/injection, schedule: Q01DX009 (ip), vehicle: saline + alcohol
[4] = dose: 2.0 mg/kg/injection, schedule: Q01DX009 (ip), vehicle: saline + alcohol
[5] = dose: 4.0 mg/kg/injection, schedule: Q01DX009 (ip), vehicle: saline + alcohol
[6] = dose: 8.0 mg/kg/injection, schedule: Q01DX009 (ip), vehicle: saline + alcohol

CC(=O)OCC12CCC(C)=CC1OC1C(O)C(OC(C)=O)C2(C)C12CO2 (centres undefined)
T/C (dose: 0.13 mg/kg/injection, schedule: Q01DX009 (ip), vehicle: distilled water + Tween-80): 121 % of control [survivor count not shown]
T/C (dose: 0.13 mg/kg/injection, schedule: Q01DX009 (ip), vehicle: water): 120 % of control [survivor count not shown]
T/C (dose: 0.25 mg/kg/injection, schedule: Q01DX009 (ip), vehicle: Klucel (hydroxypropylcellulose) (HPC)): 139 % of control [survivor count not shown]
T/C (dose: 0.25 mg/kg/injection, schedule: Q01DX009 (ip), vehicle: distilled water + Tween-80): 114 % of control [survivor count not shown]
T/C (dose: 0.25 mg/kg/injection, schedule: Q01DX009 (ip), vehicle: water, evaluated on day 45): 121 % of control [survivor count not shown]
T/C (dose: 0.25 mg/kg/injection, schedule: Q01DX009 (ip), vehicle: water, evaluated on day 60): 129 % of control [survivor count not shown]
T/C (dose: 0.5 mg/kg/injection, schedule: Q01DX009 (ip), vehicle: Klucel (hydroxypropylcellulose) (HPC)): 127 % of control [survivor count not shown]
T/C (dose: 0.5 mg/kg/injection, schedule: Q01DX009 (ip), vehicle: distilled water + Tween-80): 133 % of control [survivor count not shown]
T/C (dose: 0.5 mg/kg/injection, schedule: Q01DX009 (ip), vehicle: saline, evaluated on day 45): 125 % of control [survivor count not shown]
T/C (dose: 0.5 mg/kg/injection, schedule: Q01DX009 (ip), vehicle: saline, evaluated on day 60): 133 [survivor count not shown] and 135 % of control [survivor count not shown]
T/C (dose: 0.5 mg/kg/injection, schedule: Q01DX009 (ip), vehicle: water, evaluated on day 45): 131 [survivor count not shown] and 140 % of control [survivor count not shown]
T/C (dose: 0.5 mg/kg/injection, schedule: Q01DX009 (ip), vehicle: water, evaluated on day 60): 135 % of control [survivor count not shown]
T/C (dose: 1.0 mg/kg/injection, schedule: Q01DX009 (ip), vehicle: Klucel (hydroxypropylcellulose) (HPC)): 141 % of control [survivor count not shown]
T/C (dose: 1.0 mg/kg/injection, schedule: Q01DX009 (ip), vehicle: distilled water + Tween-80): 130 % of control [survivor count not shown]
T/C (dose: 1.0 mg/kg/injection, schedule: Q01DX009 (ip), vehicle: saline, evaluated on day 45): 118 % of control [survivor count not shown]
T/C (dose: 1.0 mg/kg/injection, schedule: Q01DX009 (ip), vehicle: saline, evaluated on day 60): 126 [survivor count not shown], 134 [survivor count not shown], 138 % of control [survivor count not shown]
T/C (dose: 1.0 mg/kg/injection, schedule: Q01DX009 (ip), vehicle: water, evaluated on day 45): 131 [survivor count not shown] and 140 % of control [survivor count not shown]
T/C (dose: 1.0 mg/kg/injection, schedule: Q01DX009 (ip), vehicle: water, evaluated on day 60): 142 % of control [survivor count not shown]
T/C (dose: 1.3 mg/kg/injection, schedule: Q04DX003 (sc), vehicle: saline + alcohol): 115 % of control [survivor count not shown]
T/C (dose: 1.5 mg/kg/injection, schedule: Q04DX003 (ip), vehicle: other): 108 % of control [survivor count not shown]
T/C (dose: 2.0 mg/kg/injection, schedule: Q01DX009 (ip), vehicle: Klucel (hydroxypropylcellulose) (HPC)): 140 % of control [survivor count not shown]
T/C [1]: 133 % of control [survivor count not shown]
T/C (dose: 2.0 mg/kg/injection, schedule: Q01DX009 (ip), vehicle: saline, evaluated on day 45): 125 % of control [survivor count not shown]
T/C (dose: 2.0 mg/kg/injection, schedule: Q01DX009 (ip), vehicle: saline, evaluated on day 60): 101 [survivor count not shown] and 135 % of control [survivor count not shown]
T/C (dose: 2.0 mg/kg/injection, schedule: Q01DX009 (ip), vehicle: water, evaluated on day 45): 130 % of control [survivor count not shown]
T/C (dose: 2.0 mg/kg/injection, schedule: Q01DX009 (ip), vehicle: water, evaluated on day 60): 138 % of control [survivor count not shown]
T/C (dose: 2.16 mg/kg/injection, schedule: Q04DX003 (sc), vehicle: saline + alcohol): 125 % of control [survivor count not shown]
T/C (dose: 2.59 mg/kg/injection, schedule: Q04DX003 (ip), vehicle: saline + alcohol): 115 % of control [survivor count not shown]
T/C (dose: 3.0 mg/kg/injection, schedule: Q04DX003 (ip), vehicle: other): 107 % of control [survivor count not shown]
T/C (dose: 3.6 mg/kg/injection, schedule: Q04DX003 (sc), vehicle: saline + alcohol): 120 % of control [survivor count not shown]
T/C (dose: 4.0 mg/kg/injection, schedule: Q01DX009 (ip), vehicle: saline, evaluated on day 45): 118 % of control [survivor count not shown]
T/C (dose: 4.0 mg/kg/injection, schedule: Q01DX009 (ip), vehicle: saline, evaluated on day 60): 119 [survivor count not shown] and 138 % of control [survivor count not shown]
T/C (dose: 4.32 mg/kg/injection, schedule: Q04DX003 (ip), vehicle: saline + alcohol): 108 [survivor count not shown] and 125 % of control [survivor count not shown]
T/C (dose: 6.0 mg/kg/injection, schedule: Q04DX003 (sc), vehicle: saline + alcohol): 111 % of control [survivor count not shown]
T/C (dose: 7.2 mg/kg/injection, schedule: Q04DX003 (ip), vehicle: saline + alcohol): 115 % of control [survivor count not shown]
T/C (dose: 12.0 mg/kg/injection, schedule: Q04DX003 (ip), vehicle: saline + alcohol): 108 % of control [survivor count not shown]

CC(=O)OCC12CCC(C)=CC1OC1C(O)C(O)C2(C)C12CO2 (centres undefined)
T/C (dose: 0.5 mg/kg/injection, schedule: Q01DX009 (ip), vehicle: saline): 142 % of control [survivor count not shown]
T/C (dose: 1.0 mg/kg/injection, schedule: Q01DX009 (ip), vehicle: saline): 125 % of control [survivor count not shown]

CC1=C[C@H]2O[C@@H]3[C@H](OC(=O)CCl)[C@@H](O)[C@](C)(C2(CO)CC1)[C@@]31CO1 (some centres undefined)
T/C (dose: 0.75 mg/kg/injection, schedule: Q01DX009 (ip), vehicle: saline + alcohol): 102 % of control [survivor count not shown]
T/C (dose: 1.5 mg/kg/injection, schedule: Q01DX009 (ip), vehicle: saline + alcohol): 103 % of control [survivor count not shown]
T/C (dose: 3.0 mg/kg/injection, schedule: Q01DX009 (ip), vehicle: saline + alcohol): 102 % of control [survivor count not shown]
T/C (dose: 6.0 mg/kg/injection, schedule: Q01DX009 (ip), vehicle: saline + alcohol): 107 % of control [survivor count not shown]
T/C (dose: 12.0 mg/kg/injection, schedule: Q01DX009 (ip), vehicle: saline + alcohol): 107 % of control [survivor count not shown]

C[C@@H]1CCOC(=O)/C=C/C=C\C(=O)O[C@@H]2C[C@H]3O[C@@H]4[C@@H]5OC5(C)CCC4(COC(=O)[C@H]1O)[C@]2(C)[C@@]31CO1 (some centres undefined)
T/C [2]: 139 % of control [survivor count not shown]
T/C [3]: 159 % of control [survivor count not shown]
T/C [4]: 130 % of control [survivor count not shown]
T/C [5]: 131 % of control [survivor count not shown]
T/C [6]: 114 % of control [survivor count not shown]

CC1=C[C@H]2O[C@@H]3[C@H](O)[C@@H](O)[C@](C)(C2(COC(=O)CCl)CC1)[C@@]31CO1 (some centres undefined)
T/C [2]: 108 % of control [survivor count not shown]
T/C [3]: 112 % of control [survivor count not shown]
T/C [1]: 138 % of control [survivor count not shown]
T/C [4]: 112 % of control [survivor count not shown]
T/C (dose: 4.0 mg/kg/injection, schedule: Q01DX009 (ip), vehicle: distilled water + Tween-80): 138 % of control [survivor count not shown]
T/C [5]: 127 % of control [survivor count not shown]
T/C [6]: 145 % of control [survivor count not shown]

CC1=C[C@H]2O[C@H]3[C@H](O)[C@@H](OC(=O)CCl)[C@](C)([C@@]2(COC(=O)CCl)CC1)[C@@]31CO1
T/C [4]: 102 % of control [survivor count not shown]
T/C [5]: 99 % of control [survivor count not shown]
T/C [6]: 103 % of control [survivor count not shown]
T/C (dose: 16.0 mg/kg/injection, schedule: Q01DX009 (ip), vehicle: saline + alcohol): 108 % of control [survivor count not shown]
